Earlier results in US8013163B2 (Astex Therapeutics Limited, priority 2005, dated 2011).
At least one compound was matched to its structure with a doubt left.

System: symptomatic CLL patients
Settings: initial therapy; cited from earlier work

## Nc1nc(F)nc2c1ncn2[C@@H]1O[C@H](CO)[C@@H](O)[C@@H]1O [fludarabine]
  rate of complete responses: 27%
